Here are results for one substance from publication PMC5294785.

Amino acid sequences for entries named in this document (tags omitted).
UniProt O95292: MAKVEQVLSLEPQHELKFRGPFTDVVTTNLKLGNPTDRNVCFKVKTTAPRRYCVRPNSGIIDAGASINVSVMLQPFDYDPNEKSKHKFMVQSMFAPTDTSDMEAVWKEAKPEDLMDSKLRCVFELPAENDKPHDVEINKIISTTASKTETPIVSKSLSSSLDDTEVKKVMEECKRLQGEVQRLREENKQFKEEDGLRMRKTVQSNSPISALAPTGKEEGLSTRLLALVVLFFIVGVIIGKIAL

Results are given in words; binding and its absence hold for the method and conditions named. In cells and extracts the contact can be indirect. Some entries that bind do so weakly or less than the wild type. Where a sequence is shown, tags or fusion partners need not be part of it.

For the assay, the target named is T1, GFP-ACBD5 (not stated (human cDNA cloned; an EGFP-rACBD5 is also used)) (UniProt Q5T8D3).
T1 sequence: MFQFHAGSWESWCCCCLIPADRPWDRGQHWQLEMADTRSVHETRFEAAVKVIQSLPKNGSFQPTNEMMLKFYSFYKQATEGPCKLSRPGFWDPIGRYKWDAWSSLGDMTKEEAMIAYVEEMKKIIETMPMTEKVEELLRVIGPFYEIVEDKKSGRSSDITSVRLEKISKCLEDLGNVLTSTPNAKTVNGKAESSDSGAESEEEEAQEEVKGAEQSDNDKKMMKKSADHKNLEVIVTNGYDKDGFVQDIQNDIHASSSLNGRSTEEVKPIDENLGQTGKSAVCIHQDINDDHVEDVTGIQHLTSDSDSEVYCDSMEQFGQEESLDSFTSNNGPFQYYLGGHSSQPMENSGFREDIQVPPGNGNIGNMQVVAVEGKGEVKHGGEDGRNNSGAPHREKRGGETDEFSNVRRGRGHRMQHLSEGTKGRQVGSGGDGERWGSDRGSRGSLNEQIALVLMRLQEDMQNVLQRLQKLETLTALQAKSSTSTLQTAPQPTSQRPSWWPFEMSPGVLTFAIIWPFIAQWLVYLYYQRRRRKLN
As to the kind of experiment: co-IP; GFP-ACBD5 and Myc-VAPB coexpressed in COS-7 cells; lysate (25 mM Tris-HCl pH 7.5, 150 mM NaCl, 1% NP-40) on GFP-TRAP magnetic agarose beads, 2 h at 4°C; immunoblot with Myc and GFP antibodies.

On to Myc-VAPB (from UniProt O95292 1-243), for which the binding result was “binds”.
